Article doi:10.1101/2021.03.31.437839

Chains of the proteins cited; added tags and fusions are not shown. Lines headed by an entry give the natural chain unless they say otherwise; changes in a name come on top.
UniProt P78504: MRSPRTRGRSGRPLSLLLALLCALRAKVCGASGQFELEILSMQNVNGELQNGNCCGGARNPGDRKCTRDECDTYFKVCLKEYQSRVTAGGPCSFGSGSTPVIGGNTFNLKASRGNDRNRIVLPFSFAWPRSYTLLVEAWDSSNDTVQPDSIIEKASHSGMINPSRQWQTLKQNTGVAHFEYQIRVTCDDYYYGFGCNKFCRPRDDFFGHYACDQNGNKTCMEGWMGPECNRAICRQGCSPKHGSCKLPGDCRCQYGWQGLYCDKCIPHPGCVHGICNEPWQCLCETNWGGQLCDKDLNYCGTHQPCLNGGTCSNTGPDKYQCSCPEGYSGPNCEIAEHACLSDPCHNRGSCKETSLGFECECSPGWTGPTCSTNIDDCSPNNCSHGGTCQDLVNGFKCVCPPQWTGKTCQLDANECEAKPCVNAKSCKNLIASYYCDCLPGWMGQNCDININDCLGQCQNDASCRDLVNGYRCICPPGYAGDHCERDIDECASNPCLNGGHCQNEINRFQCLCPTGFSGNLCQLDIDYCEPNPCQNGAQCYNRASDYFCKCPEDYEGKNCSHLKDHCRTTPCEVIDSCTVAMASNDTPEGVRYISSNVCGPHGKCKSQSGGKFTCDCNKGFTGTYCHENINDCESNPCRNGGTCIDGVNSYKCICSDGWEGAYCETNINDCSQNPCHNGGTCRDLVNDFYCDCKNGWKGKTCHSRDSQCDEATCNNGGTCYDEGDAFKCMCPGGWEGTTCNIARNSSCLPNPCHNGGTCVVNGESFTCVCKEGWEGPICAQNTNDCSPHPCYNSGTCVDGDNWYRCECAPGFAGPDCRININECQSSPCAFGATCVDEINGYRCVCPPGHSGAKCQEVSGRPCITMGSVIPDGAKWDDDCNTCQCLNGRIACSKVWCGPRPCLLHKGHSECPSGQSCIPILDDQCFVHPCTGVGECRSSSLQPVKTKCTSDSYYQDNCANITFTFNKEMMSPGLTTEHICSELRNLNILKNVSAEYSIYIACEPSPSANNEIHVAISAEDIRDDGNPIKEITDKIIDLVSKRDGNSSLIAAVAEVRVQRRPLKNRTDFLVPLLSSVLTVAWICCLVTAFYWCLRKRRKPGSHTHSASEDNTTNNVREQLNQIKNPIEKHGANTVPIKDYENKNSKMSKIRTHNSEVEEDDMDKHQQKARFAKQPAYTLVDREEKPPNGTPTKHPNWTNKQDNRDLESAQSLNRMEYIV
UniProt P84022: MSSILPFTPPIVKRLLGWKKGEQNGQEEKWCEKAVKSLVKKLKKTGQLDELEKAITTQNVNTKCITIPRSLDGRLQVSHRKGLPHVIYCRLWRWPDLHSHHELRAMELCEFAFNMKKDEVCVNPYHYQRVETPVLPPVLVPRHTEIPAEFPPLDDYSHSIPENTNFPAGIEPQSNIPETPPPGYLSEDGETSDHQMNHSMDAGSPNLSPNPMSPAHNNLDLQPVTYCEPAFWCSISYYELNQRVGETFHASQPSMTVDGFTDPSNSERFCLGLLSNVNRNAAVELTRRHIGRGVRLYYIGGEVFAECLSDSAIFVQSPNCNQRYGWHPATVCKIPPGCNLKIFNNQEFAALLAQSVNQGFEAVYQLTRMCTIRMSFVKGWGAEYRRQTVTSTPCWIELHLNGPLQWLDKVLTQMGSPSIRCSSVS
UniProt Q15583: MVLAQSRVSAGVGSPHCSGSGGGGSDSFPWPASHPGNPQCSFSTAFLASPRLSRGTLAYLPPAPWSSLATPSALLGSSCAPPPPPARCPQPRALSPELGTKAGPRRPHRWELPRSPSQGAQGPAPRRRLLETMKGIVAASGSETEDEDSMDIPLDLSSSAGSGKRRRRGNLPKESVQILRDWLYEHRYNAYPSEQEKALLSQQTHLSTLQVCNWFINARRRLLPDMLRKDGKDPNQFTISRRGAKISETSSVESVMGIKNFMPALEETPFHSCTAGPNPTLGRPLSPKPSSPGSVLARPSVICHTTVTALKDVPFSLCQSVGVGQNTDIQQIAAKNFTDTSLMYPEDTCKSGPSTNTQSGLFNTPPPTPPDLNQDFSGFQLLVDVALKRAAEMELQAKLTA
UniProt Q9GZN2: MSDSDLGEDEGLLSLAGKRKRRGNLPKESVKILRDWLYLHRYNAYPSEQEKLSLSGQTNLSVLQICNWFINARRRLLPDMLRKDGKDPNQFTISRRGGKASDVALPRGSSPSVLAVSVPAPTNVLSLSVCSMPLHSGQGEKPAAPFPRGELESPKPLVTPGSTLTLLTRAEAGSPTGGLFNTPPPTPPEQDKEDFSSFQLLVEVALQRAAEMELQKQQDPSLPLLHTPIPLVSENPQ

How the values were obtained:
Assay in all cases: co-IP
[1] = biological target: HA-JICD1 (JAG1 intracellular domain) (human) (UniProt P78504)
[2] = biological target: HA-JICD1 (JAG1 intracellular domain) (human) (UniProt P78504); remark: listed apart in the source
[3] = biological target: FLAG-SMAD3 mutant consisting of only the linker domain (human) (UniProt P84022)

| binding [1] | binding [2] | binding [3] | Substance |
| --- | --- | --- | --- |
| no binding | no binding | – | FLAG-TGIF1 (TGFB-induced factor homeobox 1) (from UniProt Q15583 1-401) |
| – | – | binds | HA-TGIF2 (from UniProt Q9GZN2 1-237) |

Read-outs that look alike come from different tables or passages of the source. Results are given in words; binding and its absence hold for the method and conditions named. Binding seen in cells or lysates may run through a third protein. For part of these data: A result given as binding can be weak or reduced; the word gives no strength.
